Measured values reported in paper PMC3708844 (2013).
These are yes or no findings as the source states them, for the method shown. For part of these data: Binding seen in cells or lysates may run through a third protein. Some entries that bind do so weakly or less than the wild type. Tags and fused reporters may be left off the sequences shown.

T1: SHINY1 (SHI1), full length, fused with the DNA binding domain (BD) (Arabidopsis thaliana) (UniProt Q8W4B1)
T1 sequence: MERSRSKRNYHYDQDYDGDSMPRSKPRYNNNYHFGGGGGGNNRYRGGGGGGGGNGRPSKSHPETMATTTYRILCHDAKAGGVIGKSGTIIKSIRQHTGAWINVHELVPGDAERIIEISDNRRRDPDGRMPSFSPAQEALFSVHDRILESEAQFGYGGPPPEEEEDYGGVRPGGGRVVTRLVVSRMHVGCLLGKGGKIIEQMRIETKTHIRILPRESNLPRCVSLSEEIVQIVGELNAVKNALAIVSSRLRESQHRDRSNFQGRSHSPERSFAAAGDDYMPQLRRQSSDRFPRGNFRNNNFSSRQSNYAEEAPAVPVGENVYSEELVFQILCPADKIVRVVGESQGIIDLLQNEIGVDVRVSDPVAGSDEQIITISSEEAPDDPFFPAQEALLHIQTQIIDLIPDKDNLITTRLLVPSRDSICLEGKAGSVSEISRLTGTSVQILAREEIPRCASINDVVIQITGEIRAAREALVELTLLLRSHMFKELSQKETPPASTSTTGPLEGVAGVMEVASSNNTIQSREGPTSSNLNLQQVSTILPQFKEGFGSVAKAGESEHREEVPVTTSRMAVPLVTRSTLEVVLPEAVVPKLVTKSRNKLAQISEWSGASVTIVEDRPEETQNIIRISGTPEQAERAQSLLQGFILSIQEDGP

T2: FLAG-SHI1 (Arabidopsis thaliana) (UniProt Q8W4B1)
T2 sequence: T1 sequence

T3: FRY2-c-TAP (Arabidopsis thaliana) (UniProt Q5YDB6)
T3 sequence: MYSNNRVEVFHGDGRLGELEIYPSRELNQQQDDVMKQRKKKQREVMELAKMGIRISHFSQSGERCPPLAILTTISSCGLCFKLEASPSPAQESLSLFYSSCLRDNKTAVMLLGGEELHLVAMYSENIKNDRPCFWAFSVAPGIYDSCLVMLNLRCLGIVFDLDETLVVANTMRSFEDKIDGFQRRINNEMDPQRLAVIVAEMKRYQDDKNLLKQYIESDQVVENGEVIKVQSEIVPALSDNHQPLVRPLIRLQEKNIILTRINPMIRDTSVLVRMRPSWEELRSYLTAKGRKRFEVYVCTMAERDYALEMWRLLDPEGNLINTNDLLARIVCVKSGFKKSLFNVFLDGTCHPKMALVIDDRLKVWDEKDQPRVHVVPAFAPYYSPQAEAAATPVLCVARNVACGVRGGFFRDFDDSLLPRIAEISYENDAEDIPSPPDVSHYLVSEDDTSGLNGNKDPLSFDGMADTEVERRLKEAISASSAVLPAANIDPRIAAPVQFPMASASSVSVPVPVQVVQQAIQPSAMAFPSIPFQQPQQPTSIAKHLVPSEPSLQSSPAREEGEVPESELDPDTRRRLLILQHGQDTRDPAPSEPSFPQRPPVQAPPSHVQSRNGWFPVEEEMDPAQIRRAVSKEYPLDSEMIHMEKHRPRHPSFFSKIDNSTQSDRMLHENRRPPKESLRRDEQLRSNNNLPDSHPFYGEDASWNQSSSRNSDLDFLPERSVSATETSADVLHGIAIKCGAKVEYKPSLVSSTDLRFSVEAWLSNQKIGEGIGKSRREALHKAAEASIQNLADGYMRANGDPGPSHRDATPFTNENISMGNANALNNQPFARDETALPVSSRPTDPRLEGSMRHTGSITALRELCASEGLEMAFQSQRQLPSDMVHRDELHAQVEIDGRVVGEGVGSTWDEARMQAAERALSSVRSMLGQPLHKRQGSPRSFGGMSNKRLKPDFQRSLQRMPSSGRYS

B1: FRY2/CPL1 476-967 (longest prey cDNA clone of the two-hybrid screen) (domain or fragment, UniProt Q5YDB6 476-967)
chain: AISASSAVLPAANIDPRIAAPVQFPMASASSVSVPVPVQVVQQAIQPSAMAFPSIPFQQPQQPTSIAKHLVPSEPSLQSSPAREEGEVPESELDPDTRRRLLILQHGQDTRDPAPSEPSFPQRPPVQAPPSHVQSRNGWFPVEEEMDPAQIRRAVSKEYPLDSEMIHMEKHRPRHPSFFSKIDNSTQSDRMLHENRRPPKESLRRDEQLRSNNNLPDSHPFYGEDASWNQSSSRNSDLDFLPERSVSATETSADVLHGIAIKCGAKVEYKPSLVSSTDLRFSVEAWLSNQKIGEGIGKSRREALHKAAEASIQNLADGYMRANGDPGPSHRDATPFTNENISMGNANALNNQPFARDETALPVSSRPTDPRLEGSMRHTGSITALRELCASEGLEMAFQSQRQLPSDMVHRDELHAQVEIDGRVVGEGVGSTWDEARMQAAERALSSVRSMLGQPLHKRQGSPRSFGGMSNKRLKPDFQRSLQRMPSSGRYS
B2: FRY2-c-TAP (protein, UniProt Q5YDB6 1-967)
chain: T3 sequence
B3: FLAG-SHI1 (protein, UniProt Q8W4B1 1-652)
chain: T1 sequence
B4: FRY2/CPL1 533-967 (medium sized prey cDNA clone of the two-hybrid screen) (domain or fragment, UniProt Q5YDB6 533-967)
chain: QQPQQPTSIAKHLVPSEPSLQSSPAREEGEVPESELDPDTRRRLLILQHGQDTRDPAPSEPSFPQRPPVQAPPSHVQSRNGWFPVEEEMDPAQIRRAVSKEYPLDSEMIHMEKHRPRHPSFFSKIDNSTQSDRMLHENRRPPKESLRRDEQLRSNNNLPDSHPFYGEDASWNQSSSRNSDLDFLPERSVSATETSADVLHGIAIKCGAKVEYKPSLVSSTDLRFSVEAWLSNQKIGEGIGKSRREALHKAAEASIQNLADGYMRANGDPGPSHRDATPFTNENISMGNANALNNQPFARDETALPVSSRPTDPRLEGSMRHTGSITALRELCASEGLEMAFQSQRQLPSDMVHRDELHAQVEIDGRVVGEGVGSTWDEARMQAAERALSSVRSMLGQPLHKRQGSPRSFGGMSNKRLKPDFQRSLQRMPSSGRYS
B5: FRY2/CPL1 666-967 (shortest prey cDNA clone of the two-hybrid screen) (domain or fragment, UniProt Q5YDB6 666-967)
chain: MLHENRRPPKESLRRDEQLRSNNNLPDSHPFYGEDASWNQSSSRNSDLDFLPERSVSATETSADVLHGIAIKCGAKVEYKPSLVSSTDLRFSVEAWLSNQKIGEGIGKSRREALHKAAEASIQNLADGYMRANGDPGPSHRDATPFTNENISMGNANALNNQPFARDETALPVSSRPTDPRLEGSMRHTGSITALRELCASEGLEMAFQSQRQLPSDMVHRDELHAQVEIDGRVVGEGVGSTWDEARMQAAERALSSVRSMLGQPLHKRQGSPRSFGGMSNKRLKPDFQRSLQRMPSSGRYS
B6: FRY2/CPL1, full length, fused with the activation domain (AD) (protein, UniProt Q5YDB6 1-967)
chain: T3 sequence

Key:
[1] = molecular target: T1, SHINY1 (SHI1), full length, fused with the DNA binding domain (BD) (Arabidopsis thaliana); experiment: two-hybrid; screen of an Arabidopsis prey cDNA library with the SHI1 bait in S. cerevisiae Y190; medium lacking tryptophan, leucine and histidine with 25 mM 3-amino-1,2,4-triazole; confirmed by beta-galactosidase assay
[2] = molecular target: T2, FLAG-SHI1 (Arabidopsis thaliana); experiment: co-IP; proteins isolated from F1 seedlings of the cross of Flag-SHI1 and FRY2-cTAP transgenic Arabidopsis; both directions
[3] = molecular target: T3, FRY2-c-TAP (Arabidopsis thaliana); experiment: as above
[4] = molecular target: T1, SHINY1 (SHI1), full length, fused with the DNA binding domain (BD) (Arabidopsis thaliana); experiment: two-hybrid; directed tests and deletion analysis in Y190: SHI1 forms fused with the AD against full length FRY2-BD, FRY2 forms fused with the AD against full length SHI1-BD; growth on medium minus Trp, Leu and His with 3-AT and X-gal assay

Binder | binding [1] | also measured
B1 | binds | 
B2 |  | binding [2]: binds
B3 |  | binding [3]: binds
B4 | binds | 
B5 | binds | 
B6 |  | binding [4]: binds
